According to PMC6735362:
No constants are given. Whether binding was seen depends on the method and setting. Binding seen in cells or lysates may run through a third protein. Binding can be weak; no strength is given.

The chains behind the UniProt entries cited, without tags or fusion partners. Where a name states a change or a piece, a line headed by the entry shows the natural chain unless it says otherwise.
UniProt P18206: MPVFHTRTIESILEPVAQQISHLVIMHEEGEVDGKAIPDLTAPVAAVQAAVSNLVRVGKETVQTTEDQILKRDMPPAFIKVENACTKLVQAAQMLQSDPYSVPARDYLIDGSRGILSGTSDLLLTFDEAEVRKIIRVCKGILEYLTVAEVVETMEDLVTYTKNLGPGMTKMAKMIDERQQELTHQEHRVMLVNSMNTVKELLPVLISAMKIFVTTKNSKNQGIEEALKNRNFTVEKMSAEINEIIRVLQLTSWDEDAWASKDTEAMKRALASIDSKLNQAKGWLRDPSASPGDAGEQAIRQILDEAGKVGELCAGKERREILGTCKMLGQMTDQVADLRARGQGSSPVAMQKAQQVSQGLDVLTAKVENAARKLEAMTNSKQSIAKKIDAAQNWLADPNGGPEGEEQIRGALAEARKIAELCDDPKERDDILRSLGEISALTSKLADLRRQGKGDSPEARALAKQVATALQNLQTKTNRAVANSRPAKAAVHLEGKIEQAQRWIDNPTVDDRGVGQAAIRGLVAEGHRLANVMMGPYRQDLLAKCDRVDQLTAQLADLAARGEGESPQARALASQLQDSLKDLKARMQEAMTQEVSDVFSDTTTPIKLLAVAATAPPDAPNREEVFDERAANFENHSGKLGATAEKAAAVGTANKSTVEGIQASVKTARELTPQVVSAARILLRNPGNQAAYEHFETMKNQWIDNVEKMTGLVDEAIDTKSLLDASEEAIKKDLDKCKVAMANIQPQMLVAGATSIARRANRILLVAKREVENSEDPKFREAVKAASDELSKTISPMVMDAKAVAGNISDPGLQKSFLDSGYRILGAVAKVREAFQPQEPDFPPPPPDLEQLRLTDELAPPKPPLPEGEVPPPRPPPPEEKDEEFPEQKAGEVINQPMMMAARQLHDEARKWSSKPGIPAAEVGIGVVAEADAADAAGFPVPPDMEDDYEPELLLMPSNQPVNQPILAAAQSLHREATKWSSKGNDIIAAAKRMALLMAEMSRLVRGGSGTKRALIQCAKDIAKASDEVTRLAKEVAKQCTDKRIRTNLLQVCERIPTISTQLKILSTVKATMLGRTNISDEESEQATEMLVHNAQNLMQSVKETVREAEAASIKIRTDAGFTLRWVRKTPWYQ

Biological target: Vinculin, endogenous in human brain vascular pericytes (human (endogenous in HBVPs)) (UniProt P18206)
Experiment: co-IP; endogenous proteins; whole cell extracts of HBVPs incubated with or without SIN-1 (0.5 mM, 12 h); anti-Vinculin antibody 1 h at 4 °C, Capturem IP & Co-IP Kit spin column; immunoblot for GPR124 and Vinculin

- binding: binds
B1: G protein-coupled receptor 124 (GPR124), endogenous in human brain vascular pericytes (receptor, UniProt Q96PE1 34-1338)
chain: APGCPLSIRSCKCSGERPKGLSGGVPGPARRRVVCSGGDLPEPPEPGLLPNGTVTLLLSNNKITGLRNGSFLGLSLLEKLDLRNNIISTVQPGAFLGLGELKRLDLSNNRIGCLTSETFQGLPRLLRLNISGNIFSSLQPGVFDELPALKVVDLGTEFLTCDCHLRWLLPWAQNRSLQLSEHTLCAYPSALHAQALGSLQEAQLCCEGALELHTHHLIPSLRQVVFQGDRLPFQCSASYLGNDTRIRWYHNRAPVEGDEQAGILLAESLIHDCTFITSELTLSHIGVWASGEWECTVSMAQGNASKKVEIVVLETSASYCPAERVANNRGDFRWPRTLAGITAYQSCLQYPFTSVPLGGGAPGTRASRRCDRAGRWEPGDYSHCLYTNDITRVLYTFVLMPINASNALTLAHQLRVYTAEAASFSDMMDVVYVAQMIQKFLGYVDQIKELVEVMVDMASNLMLVDEHLLWLAQREDKACSRIVGALERIGGAALSPHAQHISVNARNVALEAYLIKPHSYVGLTCTAFQRREGGVPGTRPGSPGQNPPPEPEPPADQQLRFRCTTGRPNVSLSSFHIKNSVALASIQLPPSLFSSLPAALAPPVPPDCTLQLLVFRNGRLFHSHSNTSRPGAAGPGKRRGVATPVIFAGTSGCGVGNLTEPVAVSLRHWAEGAEPVAAWWSQEGPGEAGGWTSEGCQLRSSQPNVSALHCQHLGNVAVLMELSAFPREVGGAGAGLHPVVYPCTALLLLCLFATIITYILNHSSIRVSRKGWHMLLNLCFHIAMTSAVFAGGITLTNYQMVCQAVGITLHYSSLSTLLWMGVKARVLHKELTWRAPPPQEGDPALPTPSPMLRFYLIAGGIPLIICGITAAVNIHNYRDHSPYCWLVWRPSLGAFYIPVALILLITWIYFLCAGLRLRGPLAQNPKAGNSRASLEAGEELRGSTRLRGSGPLLSDSGSLLATGSARVGTPGPPEDGDSLYSPGVQLGALVTTHFLYLAMWACGALAVSQRWLPRVVCSCLYGVAASALGLFVFTHHCARRRDVRASWRACCPPASPAAPHAPPRALPAAAEDGSPVFGEGPPSLKSSPSGSSGHPLALGPCKLTNLQLAQSQVCEAGAAAGGEGEPEPAGTRGNLAHRHPNNVHHGRRAHKSRAKGHRAGEACGKNRLKALRGGAAGALELLSSESGSLHNSPTDSYLGSSRNSPGAGLQLEGEPMLTPSEGSDTSAAPLSEAGRAGQRRSASRDSLKGGGALEKESHRRSYPLNAASLNGAPKGGKYDDVTLMGAEVASGGCMKTGLWKSETTV
